# From US20150239933A1
# No constants are given. Whether binding was seen depends on the method and setting.
# B1: Helix-B peptide (peptide)
# peptide: RAKWNNTLKQIASK
# Key:
# [1] = target: Porcine tubulin dimer (porcine); test: SPR, 60 sec injection over immobilised tubulin dimer (one of two injections; the other gave 0.4 RU)
# [2] = target: Porcine tubulin dimer (porcine); test: SPR (Biacore T200), tubulin dimer amine-coupled to a CM5 chip, peptide as analyte at 625 nM to 20 µM
binder,measurement,setting,value
B1,binding,[1],no binding (tested: 10 uM)
same,binding,[2],no binding (tested: 20 µM)
